Article PMC4303762, “Identification of PLXDC1 and PLXDC2 as the transmembrane receptors for the multifunctional factor PEDF” (eLife, 2014)
No constants are given. Whether binding was seen depends on the method and setting. In cells and extracts the contact can be indirect. Some binding calls cover weakened binding; strength is not graded here. Tags and fused reporters may be left off the sequences shown.

Protein sequences, listed by entry. Tags and fused reporters are not part of them. Residues count along the entry.
UniProt Q6UX71, residues 31-529: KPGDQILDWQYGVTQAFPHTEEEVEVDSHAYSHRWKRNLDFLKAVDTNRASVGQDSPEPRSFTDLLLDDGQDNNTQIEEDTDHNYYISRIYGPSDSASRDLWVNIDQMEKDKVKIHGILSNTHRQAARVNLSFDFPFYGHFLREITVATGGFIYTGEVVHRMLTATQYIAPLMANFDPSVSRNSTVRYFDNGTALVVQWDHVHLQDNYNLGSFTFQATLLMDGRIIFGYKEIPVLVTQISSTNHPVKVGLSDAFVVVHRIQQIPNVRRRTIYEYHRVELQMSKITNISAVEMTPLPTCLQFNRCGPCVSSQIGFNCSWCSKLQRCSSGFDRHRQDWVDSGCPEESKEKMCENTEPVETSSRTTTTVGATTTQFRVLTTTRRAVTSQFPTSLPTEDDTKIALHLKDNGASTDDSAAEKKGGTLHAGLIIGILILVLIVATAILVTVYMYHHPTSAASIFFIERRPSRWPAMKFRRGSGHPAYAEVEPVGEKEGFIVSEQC

Tests used:
[1] = target: T1, PLXDC1 fused to yellow fluorescent protein at the C-terminus (human) (UniProt Q8IUK5); experiment: FRET or BRET; CFP-YFP FRET (ratio of emissions at 530 nm over 470 nm) in membranes of HEK293 cells coexpressing the CFP and YFP fusions, HBSS/HEPES; some samples treated with 2 mM BMOE beforehand
T1 sequence: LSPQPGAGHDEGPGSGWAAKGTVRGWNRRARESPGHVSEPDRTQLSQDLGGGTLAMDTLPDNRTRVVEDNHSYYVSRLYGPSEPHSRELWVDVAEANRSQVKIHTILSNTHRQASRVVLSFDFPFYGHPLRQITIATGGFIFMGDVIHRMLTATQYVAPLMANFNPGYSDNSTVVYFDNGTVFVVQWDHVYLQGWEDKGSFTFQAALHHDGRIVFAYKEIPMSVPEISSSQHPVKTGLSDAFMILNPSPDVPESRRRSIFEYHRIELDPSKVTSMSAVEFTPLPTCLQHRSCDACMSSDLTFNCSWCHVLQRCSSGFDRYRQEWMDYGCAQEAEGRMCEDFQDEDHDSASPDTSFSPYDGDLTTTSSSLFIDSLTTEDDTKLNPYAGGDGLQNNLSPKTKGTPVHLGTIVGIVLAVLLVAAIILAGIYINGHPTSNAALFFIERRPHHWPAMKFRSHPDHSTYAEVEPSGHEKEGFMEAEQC

[2] = target: T2, PLXDC1-C500S fused to YFP (human) (UniProt Q8IUK5); experiment: as above
T2 sequence: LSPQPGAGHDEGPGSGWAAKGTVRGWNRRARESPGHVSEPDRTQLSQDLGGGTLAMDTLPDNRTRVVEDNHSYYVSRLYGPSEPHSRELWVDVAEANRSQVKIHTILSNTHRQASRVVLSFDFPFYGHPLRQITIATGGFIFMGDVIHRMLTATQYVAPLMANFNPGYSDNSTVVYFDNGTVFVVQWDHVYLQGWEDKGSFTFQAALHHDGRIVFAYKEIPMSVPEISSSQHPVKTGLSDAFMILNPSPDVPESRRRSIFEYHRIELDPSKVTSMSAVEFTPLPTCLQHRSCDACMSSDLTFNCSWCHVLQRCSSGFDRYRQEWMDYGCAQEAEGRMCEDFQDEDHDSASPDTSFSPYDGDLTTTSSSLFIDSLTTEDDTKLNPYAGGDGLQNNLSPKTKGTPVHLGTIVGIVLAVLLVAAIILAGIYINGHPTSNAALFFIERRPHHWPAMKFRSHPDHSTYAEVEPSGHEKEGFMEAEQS

[3] = target: T3, Rim-tagged PLXDC1 (human) (UniProt Q8IUK5); experiment: co-IP; cotransfected cells lysed in 1% Triton X-100 in HBSS; Rim-tagged protein purified on anti-Rim antibody beads, 4 hr at 4°C; eluted at pH 2.3; copurified receptors detected by anti-HA or by antibody specific to PLXDC1 or PLXDC2
T3 sequence: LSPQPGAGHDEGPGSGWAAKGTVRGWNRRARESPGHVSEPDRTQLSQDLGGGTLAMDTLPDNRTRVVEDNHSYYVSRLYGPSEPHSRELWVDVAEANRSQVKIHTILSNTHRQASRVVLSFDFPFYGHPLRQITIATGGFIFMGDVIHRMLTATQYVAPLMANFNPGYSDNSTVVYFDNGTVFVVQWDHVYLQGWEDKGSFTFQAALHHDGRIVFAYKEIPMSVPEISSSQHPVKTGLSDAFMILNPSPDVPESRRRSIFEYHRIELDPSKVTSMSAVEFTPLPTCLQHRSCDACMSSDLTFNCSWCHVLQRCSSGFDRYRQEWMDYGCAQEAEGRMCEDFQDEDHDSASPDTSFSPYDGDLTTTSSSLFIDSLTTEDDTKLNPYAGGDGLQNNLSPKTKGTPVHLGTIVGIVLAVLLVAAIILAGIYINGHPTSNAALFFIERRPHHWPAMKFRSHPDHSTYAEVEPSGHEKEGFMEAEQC

[4] = target: Rim-tagged PLXDC2 (human) (UniProt Q6UX71); experiment: as above

B1: PLXDC1 fused to Cyan Fluorescent Protein at the C-terminus (receptor, UniProt Q8IUK5 19-500)
chain: LSPQPGAGHDEGPGSGWAAKGTVRGWNRRARESPGHVSEPDRTQLSQDLGGGTLAMDTLPDNRTRVVEDNHSYYVSRLYGPSEPHSRELWVDVAEANRSQVKIHTILSNTHRQASRVVLSFDFPFYGHPLRQITIATGGFIFMGDVIHRMLTATQYVAPLMANFNPGYSDNSTVVYFDNGTVFVVQWDHVYLQGWEDKGSFTFQAALHHDGRIVFAYKEIPMSVPEISSSQHPVKTGLSDAFMILNPSPDVPESRRRSIFEYHRIELDPSKVTSMSAVEFTPLPTCLQHRSCDACMSSDLTFNCSWCHVLQRCSSGFDRYRQEWMDYGCAQEAEGRMCEDFQDEDHDSASPDTSFSPYDGDLTTTSSSLFIDSLTTEDDTKLNPYAGGDGLQNNLSPKTKGTPVHLGTIVGIVLAVLLVAAIILAGIYINGHPTSNAALFFIERRPHHWPAMKFRSHPDHSTYAEVEPSGHEKEGFMEAEQC
[1]
  binding: binds

B2: PLXDC1-C500S fused to CFP (receptor, UniProt Q8IUK5 19-500)
chain: LSPQPGAGHDEGPGSGWAAKGTVRGWNRRARESPGHVSEPDRTQLSQDLGGGTLAMDTLPDNRTRVVEDNHSYYVSRLYGPSEPHSRELWVDVAEANRSQVKIHTILSNTHRQASRVVLSFDFPFYGHPLRQITIATGGFIFMGDVIHRMLTATQYVAPLMANFNPGYSDNSTVVYFDNGTVFVVQWDHVYLQGWEDKGSFTFQAALHHDGRIVFAYKEIPMSVPEISSSQHPVKTGLSDAFMILNPSPDVPESRRRSIFEYHRIELDPSKVTSMSAVEFTPLPTCLQHRSCDACMSSDLTFNCSWCHVLQRCSSGFDRYRQEWMDYGCAQEAEGRMCEDFQDEDHDSASPDTSFSPYDGDLTTTSSSLFIDSLTTEDDTKLNPYAGGDGLQNNLSPKTKGTPVHLGTIVGIVLAVLLVAAIILAGIYINGHPTSNAALFFIERRPHHWPAMKFRSHPDHSTYAEVEPSGHEKEGFMEAEQS
[2]
  binding: binds

B3: HA-tagged full length PLXDC1 (receptor, UniProt Q8IUK5 19-500)
chain: LSPQPGAGHDEGPGSGWAAKGTVRGWNRRARESPGHVSEPDRTQLSQDLGGGTLAMDTLPDNRTRVVEDNHSYYVSRLYGPSEPHSRELWVDVAEANRSQVKIHTILSNTHRQASRVVLSFDFPFYGHPLRQITIATGGFIFMGDVIHRMLTATQYVAPLMANFNPGYSDNSTVVYFDNGTVFVVQWDHVYLQGWEDKGSFTFQAALHHDGRIVFAYKEIPMSVPEISSSQHPVKTGLSDAFMILNPSPDVPESRRRSIFEYHRIELDPSKVTSMSAVEFTPLPTCLQHRSCDACMSSDLTFNCSWCHVLQRCSSGFDRYRQEWMDYGCAQEAEGRMCEDFQDEDHDSASPDTSFSPYDGDLTTTSSSLFIDSLTTEDDTKLNPYAGGDGLQNNLSPKTKGTPVHLGTIVGIVLAVLLVAAIILAGIYINGHPTSNAALFFIERRPHHWPAMKFRSHPDHSTYAEVEPSGHEKEGFMEAEQC
[3]
  binding: binds

B4: untagged PLXDC1 (copurification) (receptor, UniProt Q8IUK5 19-500)
chain: LSPQPGAGHDEGPGSGWAAKGTVRGWNRRARESPGHVSEPDRTQLSQDLGGGTLAMDTLPDNRTRVVEDNHSYYVSRLYGPSEPHSRELWVDVAEANRSQVKIHTILSNTHRQASRVVLSFDFPFYGHPLRQITIATGGFIFMGDVIHRMLTATQYVAPLMANFNPGYSDNSTVVYFDNGTVFVVQWDHVYLQGWEDKGSFTFQAALHHDGRIVFAYKEIPMSVPEISSSQHPVKTGLSDAFMILNPSPDVPESRRRSIFEYHRIELDPSKVTSMSAVEFTPLPTCLQHRSCDACMSSDLTFNCSWCHVLQRCSSGFDRYRQEWMDYGCAQEAEGRMCEDFQDEDHDSASPDTSFSPYDGDLTTTSSSLFIDSLTTEDDTKLNPYAGGDGLQNNLSPKTKGTPVHLGTIVGIVLAVLLVAAIILAGIYINGHPTSNAALFFIERRPHHWPAMKFRSHPDHSTYAEVEPSGHEKEGFMEAEQC
[4]
  binding: no binding
